Measured data: PubChem BioAssay AID652259 (Drosophila RNAi Screening Center, 2013)
The screen tested about 22,000 reagents; below is an unselected part of those with a known target gene and a result. Of all reagents, 233 (1.1%) were called active. 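Light values are raw, unnormalised plate reads; the ratio scores behind the reporter calls were not deposited.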 A plus sign joins genes that one reagent is predicted to hit. Not given: the amount of reagent, the time to read-out, the dose of the treatment.

Assay: 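Genome-wide hunt for genes that control Wingless pathway activity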 (primary screen)
System: Drosophila clone 8 imaginal disc epithelial cells
Reagents: long dsRNA against Drosophila genes
Treatment: pathway stimulated by co-transfected Wingless expression plasmid
Measurement: 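Dual luciferase reads per well after Wingless plasmid stimulation: reporter firefly light and Renilla control light; activity is firefly divided by Renilla, a ratio not deposited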
Direction: firefly reporter light: higher = more Wg reporter light, before normalisation; Renilla control light: higher = more transfected or surviving cells
Active means: 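Strong candidates differ from their plate mean by at least two out of four per-plate statistical tests; weak candidates meet just one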
Calls: active = candidate regulator (raises or lowers reporter); inactive = not a candidate

| Gene | dsRNA | reporter change call, replicate 1 | firefly reporter light, replicate 1 | firefly reporter light, replicate 2 | Renilla control light, replicate 1 | Renilla control light, replicate 2 | call |
| --- | --- | --- | --- | --- | --- | --- | --- |
| CG13280 | DRSC02253 | – | 2224 | 6545 | 994 | 2329 | inactive |
| roq (roquin) | DRSC10227 | – | 4452 | – | 2129 | – | inactive |
| Uba1 (Ubiquitin activating enzyme 1) | DRSC07567 | – | 11577 | – | 2464 | – | inactive |
| RpS19a (Ribosomal protein S19a) | DRSC20281 | – | 16489 | – | 9661 | – | inactive |
| CG32448 | DRSC22657 | – | 6.41e5 | 5.80e5 | 2.32e5 | 140 | inactive |
| Eb1 | DRSC05016 | – | 3364 | 7777 | 563 | 2338 | inactive |
| CG8837 | DRSC00711 | – | 2429 | 6523 | 864 | 2092 | inactive |
| lectin-37Db | DRSC03279 | – | 3266 | 6722 | 960 | 2481 | inactive |
| CG10353 | DRSC19354 | – | 20209 | – | 11331 | – | inactive |
| Ir85a (Ionotropic receptor 85a) | DRSC14382 | – | 19917 | – | 5673 | – | inactive |
| Usp16-45 (Ubiquitin specific protease 16/45) | DRSC18352 | – | 3421 | 7525 | 739 | 2242 | inactive |
| CG32625 | DRSC18994 | – | 5076 | – | 1124 | – | inactive |
| COX7C (Cytochrome c oxidase subunit 7C) | DRSC06831 | – | 8050 | – | 2483 | – | inactive |
| Nhe1 (Na[+]/H[+] hydrogen exchanger 1) | DRSC00762 | – | 11760 | – | 2992 | – | inactive |
| unc-13-4A | DRSC10201 | – | 2208 | 9603 | 1403 | 4346 | inactive |
| unc-13-4A | DRSC10202 | – | 1372 | 4956 | 950 | 2358 | inactive |
| unc-13-4A | DRSC10203 | Wg reporter activity raised | 5584 | 951 | 704 | 179 | inactive |
| unc-13-4A | DRSC11013 | – | 1260 | 8902 | 858 | 3252 | inactive |
| CG15198 | DRSC19645 | – | 19700 | – | 9916 | – | inactive |
| CG6179 | DRSC19973 | – | 26896 | – | 11228 | – | inactive |
| Ubr1 (Ubr1 ubiquitin ligase) | DRSC20148 | – | 2801 | 3078 | 1155 | 1714 | inactive |
| ocn (ocnus) | DRSC17020 | – | 7564 | – | 2880 | – | inactive |
| CG34230 | DRSC05317 | – | 17081 | – | 17552 | – | inactive |
| Argk1 (Arginine kinase 1) | DRSC08959 | – | 3915 | – | 1720 | – | inactive |
| Argk1 (Arginine kinase 1) | DRSC09668 | – | 2224 | 7121 | 2124 | 4069 | inactive |
| Argk1 (Arginine kinase 1) | DRSC10460 | – | 5152 | – | 1829 | – | inactive |
| Argk1 (Arginine kinase 1) | DRSC21558 | – | 5.02e5 | 4.77e5 | 1.93e5 | 1.56e5 | inactive |
| Argk1 (Arginine kinase 1) | DRSC22665 | – | 5.15e5 | 5.16e5 | 2.24e5 | 2.01e5 | inactive |
| CG7768 | DRSC10914 | – | 3125 | – | 1600 | – | inactive |
| Mur29B (Mucin related 29B) | DRSC01018 | – | 20891 | – | 10903 | – | inactive |
| Mur29B (Mucin related 29B) | DRSC02376 | – | 3771 | 8806 | 1465 | 4503 | inactive |
| alpha-Est5 (alpha-Esterase-5) | DRSC12617 | – | 6976 | – | 1396 | – | inactive |
| Galphao (G protein alpha subunit o) | DRSC07430 | – | 11670 | – | 3812 | – | inactive |
| Sbp2 (SECIS-binding protein 2) | DRSC10766 | – | 4861 | – | 2082 | – | inactive |
| Brca2 (BRCA2, DNA repair associated) | DRSC04219 | Wg reporter activity lowered | 1587 | 4987 | 922 | 2461 | inactive |
| Brca2 (BRCA2, DNA repair associated) | DRSC04220 | – | 2853 | 7387 | 720 | 1936 | inactive |
| laza (lazaro) | DRSC11661 | – | 6667 | – | 3046 | – | inactive |
| CG11333 | DRSC14301 | – | 16299 | – | 10529 | – | inactive |
| tun (tungus) | DRSC05592 | – | 18721 | – | 12448 | – | inactive |
| tun (tungus) | DRSC07127 | – | 16325 | – | 5430 | – | inactive |
| CG14506 | DRSC14858 | – | 8744 | – | 3096 | – | inactive |
| Ir8a (Ionotropic receptor 8a) | DRSC17817 | – | 14688 | – | 6678 | – | inactive |
| Ir8a (Ionotropic receptor 8a) | DRSC17869 | – | 20955 | – | 8096 | – | inactive |
| Gr21a (Gustatory receptor 21a) | DRSC00366 | – | 1829 | 5018 | 1226 | 2890 | inactive |
| CG33258 | DRSC09415 | – | 1971 | – | 753 | – | inactive |
| CG13046 | DRSC09927 | – | 5980 | – | 2278 | – | inactive |
| Rab6 | DRSC03404 | – | 8178 | – | 2568 | – | inactive |
| Rhau (RHAU helicase) | DRSC03200 | – | 9809 | – | 2903 | – | inactive |
| CG1024 | DRSC12496 | – | 9426 | – | 3472 | – | inactive |
| PIG-S (Phosphatidylinositol glycan anchor biosynthesis class S) | DRSC14643 | – | 3219 | 7835 | 904 | 1176 | inactive |
| PIG-S (Phosphatidylinositol glycan anchor biosynthesis class S) | DRSC15388 | – | 19633 | – | 16450 | – | inactive |
| PIG-S (Phosphatidylinositol glycan anchor biosynthesis class S) | DRSC15952 | – | 3177 | 6903 | 1643 | 1763 | inactive |
| mahe (maheshvara) | DRSC17755 | – | 3748 | 10052 | 971 | 2096 | inactive |
| CG18661 | DRSC02690 | – | 3296 | 4515 | 952 | 2018 | inactive |
| CG2915 | DRSC06842 | – | 10032 | – | 3101 | – | inactive |
| tkv + CR14033 + tRNA:Asp-GTC-2-1 + 1 more | DRSC00861 | – | 22621 | – | 10662 | – | inactive |
| CG6707 | DRSC10697 | – | 9618 | – | 6087 | – | inactive |
| CG6567 + CG4565 | DRSC15599 | – | 13507 | – | 3581 | – | inactive |
| CG30288 | DRSC22005 | – | 7.78e5 | 8.25e5 | 3.00e5 | 3.17e5 | inactive |
| mfrn (mitoferrin) | DRSC15687 | – | 11549 | – | 2800 | – | inactive |
| Scsalpha1 (Succinyl-coenzyme A synthetase alpha subunit 1) | DRSC08698 | – | 5810 | – | 2698 | – | inactive |
| CG42788 | DRSC15330 | – | 16439 | – | 4002 | – | inactive |
| CG42788 | DRSC16139 | – | 17172 | – | 3921 | – | inactive |
| CG42788 | DRSC16152 | – | 11538 | – | 3430 | – | inactive |
| Ugt37C1 (UDP-glycosyltransferase family 37 member C1) | DRSC07416 | – | 6365 | – | 2449 | – | inactive |
| CG14017 | DRSC02348 | – | 1043 | 3698 | 579 | 2371 | inactive |
| CG30379 | DRSC05070 | – | 15410 | – | 7936 | – | inactive |
| CG2540 | DRSC19856 | – | 2922 | 9077 | 1341 | 3056 | inactive |
| Reph (Regulator of eph expression) | DRSC00634 | – | 20409 | – | 10108 | – | inactive |
| Reph (Regulator of eph expression) | DRSC22031 | – | 6.41e5 | 3.73e5 | 2.35e5 | 1.85e5 | inactive |
| CG12998 | DRSC19518 | – | 23329 | – | 10123 | – | inactive |
| lncRNA:CR43451 (long non-coding RNA:CR43451) | DRSC13352 | – | 3682 | – | 2529 | – | inactive |
| cno (canoe) | DRSC12054 | – | 1872 | – | 1228 | – | inactive |
| cno (canoe) | DRSC12374 | – | 7010 | – | 402 | – | inactive |

Looked up above:
For “Renilla control light, replicate 1”, CG33258 [DRSC09415] is entered as 753
Value of Argk1 (Arginine kinase 1) [DRSC21558] in “firefly reporter light, replicate 2”: 4.77e5
Under “firefly reporter light, replicate 1”, Scsalpha1 (Succinyl-coenzyme A synthetase alpha subunit 1) [DRSC08698] reads 5810
Under “firefly reporter light, replicate 2”, Brca2 (BRCA2, DNA repair associated) [DRSC04220] shows 7387
